From paper PMC10756756
Results are given in words; binding and its absence hold for the method and conditions named. Binding seen in cells or lysates may run through a third protein. Some results given as binding are weak or reduced against the parent protein; the word gives no strength. Sequences can lack the tags named with a protein.

The chains behind the UniProt entries cited, without tags or fusion partners.
UniProt P08183: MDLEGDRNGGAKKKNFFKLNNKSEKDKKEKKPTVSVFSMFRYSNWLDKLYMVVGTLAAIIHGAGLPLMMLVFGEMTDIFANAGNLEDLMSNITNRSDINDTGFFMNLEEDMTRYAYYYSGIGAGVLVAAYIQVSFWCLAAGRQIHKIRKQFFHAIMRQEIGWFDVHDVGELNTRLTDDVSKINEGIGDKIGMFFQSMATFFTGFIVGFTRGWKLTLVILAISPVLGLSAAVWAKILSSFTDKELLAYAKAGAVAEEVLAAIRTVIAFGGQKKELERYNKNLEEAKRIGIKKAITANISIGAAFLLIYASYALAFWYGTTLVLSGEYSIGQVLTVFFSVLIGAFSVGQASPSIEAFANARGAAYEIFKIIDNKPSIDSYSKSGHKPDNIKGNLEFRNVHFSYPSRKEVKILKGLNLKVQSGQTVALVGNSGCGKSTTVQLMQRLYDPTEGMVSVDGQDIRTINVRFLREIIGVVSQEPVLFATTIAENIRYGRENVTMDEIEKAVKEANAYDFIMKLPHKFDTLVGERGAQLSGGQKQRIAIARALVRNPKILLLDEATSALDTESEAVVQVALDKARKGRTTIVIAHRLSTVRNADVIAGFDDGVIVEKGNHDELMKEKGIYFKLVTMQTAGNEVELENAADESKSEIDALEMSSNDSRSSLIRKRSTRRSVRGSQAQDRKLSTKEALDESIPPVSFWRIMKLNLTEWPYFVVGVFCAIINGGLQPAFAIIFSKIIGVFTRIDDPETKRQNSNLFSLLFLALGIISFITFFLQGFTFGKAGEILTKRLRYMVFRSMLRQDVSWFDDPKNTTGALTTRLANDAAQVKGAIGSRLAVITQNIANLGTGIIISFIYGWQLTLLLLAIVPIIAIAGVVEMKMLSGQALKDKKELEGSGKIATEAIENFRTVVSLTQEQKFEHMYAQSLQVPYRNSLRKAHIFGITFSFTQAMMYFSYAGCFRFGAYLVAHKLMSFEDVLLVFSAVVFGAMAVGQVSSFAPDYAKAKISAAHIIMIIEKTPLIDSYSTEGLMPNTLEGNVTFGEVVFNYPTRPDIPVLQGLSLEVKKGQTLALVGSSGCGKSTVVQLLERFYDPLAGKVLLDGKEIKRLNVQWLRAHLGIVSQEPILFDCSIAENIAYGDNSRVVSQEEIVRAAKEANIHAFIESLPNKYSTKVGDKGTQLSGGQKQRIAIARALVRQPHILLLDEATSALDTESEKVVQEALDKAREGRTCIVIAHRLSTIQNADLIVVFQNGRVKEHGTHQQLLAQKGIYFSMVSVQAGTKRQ

T1: AUXIN …4 (AXR4), HA-His tagged (Arabidopsis thaliana) (UniProt Q9FZ33)
T1 sequence: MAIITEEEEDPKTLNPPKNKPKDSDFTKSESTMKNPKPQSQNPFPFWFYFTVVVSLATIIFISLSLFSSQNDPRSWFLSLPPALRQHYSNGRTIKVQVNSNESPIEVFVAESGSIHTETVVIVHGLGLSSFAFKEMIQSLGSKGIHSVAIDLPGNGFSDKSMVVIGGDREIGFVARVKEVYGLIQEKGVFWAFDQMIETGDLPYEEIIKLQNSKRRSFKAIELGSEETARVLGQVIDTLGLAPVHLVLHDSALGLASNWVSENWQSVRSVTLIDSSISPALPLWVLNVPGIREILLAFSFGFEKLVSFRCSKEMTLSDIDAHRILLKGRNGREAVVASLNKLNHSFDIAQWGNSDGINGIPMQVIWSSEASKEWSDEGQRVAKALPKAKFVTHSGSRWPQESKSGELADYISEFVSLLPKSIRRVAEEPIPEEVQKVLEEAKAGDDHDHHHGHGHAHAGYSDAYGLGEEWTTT

T2: AUXIN1 (AUX1), His-FLAG tagged (Arabidopsis thaliana) (UniProt Q96247)
T2 sequence: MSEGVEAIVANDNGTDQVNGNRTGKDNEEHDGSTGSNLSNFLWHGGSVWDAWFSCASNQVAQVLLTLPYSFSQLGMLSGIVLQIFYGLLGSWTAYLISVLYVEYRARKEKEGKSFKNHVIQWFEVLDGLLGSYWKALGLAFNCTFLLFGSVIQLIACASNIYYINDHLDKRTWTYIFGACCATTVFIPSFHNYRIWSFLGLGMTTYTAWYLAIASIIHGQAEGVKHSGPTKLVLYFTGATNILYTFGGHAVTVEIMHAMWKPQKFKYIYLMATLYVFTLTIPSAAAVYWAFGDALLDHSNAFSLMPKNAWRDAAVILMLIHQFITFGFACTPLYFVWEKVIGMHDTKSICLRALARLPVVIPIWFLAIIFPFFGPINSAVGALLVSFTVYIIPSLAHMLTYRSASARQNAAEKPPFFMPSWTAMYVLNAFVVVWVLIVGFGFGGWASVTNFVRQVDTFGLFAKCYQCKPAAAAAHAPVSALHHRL


Legend:
[1] = molecular target: T1, AUXIN …4 (AXR4), HA-His tagged (Arabidopsis thaliana); experiment: co-IP; HIS-AXR4 and HIS-ABCB1 co-expressed in Sf9 insect cells; AXR4 immunoprecipitated with anti-AXR4 antibodies (Pierce Co-IP Kit), binding overnight at 4°C in IP lysis/wash buffer; detection with anti-HIS antibodies
[2] = molecular target: T2, AUXIN1 (AUX1), His-FLAG tagged (Arabidopsis thaliana); experiment: co-IP; AXR4 and FLAG-AUX1 co-expressed in Sf9 insect cells; FLAG-AUX1 immunoprecipitated with anti-FLAG resin (Pierce Co-IP Kit), binding overnight at 4°C in IP lysis/wash buffer (0.025 M Tris, 0.15 M NaCl, 0.001 M EDTA, 1% NP-40, 5% glycerol, pH 7.4); AXR4 detected with anti-AXR4 antibodies

| Molecule | binding [1] | binding [2] |
| --- | --- | --- |
| mammalian multidrug pump ABCB1, His tagged (from UniProt P08183 1-1280) | no binding | – |
| AUXIN …4 (AXR4), HA-His tagged (protein, UniProt Q9FZ33 1-473) MAIITEEEEDPKTLNPPKNKPKDSDFTKSESTMKNPKPQSQNPFPFWFYFTVVVSLATIIFISLSLFSSQNDPRSWFLSLPPALRQHYSNGRTIKVQVNSNESPIEVFVAESGSIHTETVVIVHGLGLSSFAFKEMIQSLGSKGIHSVAIDLPGNGFSDKSMVVIGGDREIGFVARVKEVYGLIQEKGVFWAFDQMIETGDLPYEEIIKLQNSKRRSFKAIELGSEETARVLGQVIDTLGLAPVHLVLHDSALGLASNWVSENWQSVRSVTLIDSSISPALPLWVLNVPGIREILLAFSFGFEKLVSFRCSKEMTLSDIDAHRILLKGRNGREAVVASLNKLNHSFDIAQWGNSDGINGIPMQVIWSSEASKEWSDEGQRVAKALPKAKFVTHSGSRWPQESKSGELADYISEFVSLLPKSIRRVAEEPIPEEVQKVLEEAKAGDDHDHHHGHGHAHAGYSDAYGLGEEWTTT | – | binds |
